Some of these results come from one statement about several compounds together.
Test system: constitutively high plasma ACTH in Mrap1 KO mice
Experiment: Mrap1 KO mice constitutively high ACTH model
Assay type: in vivo, mouse
Procedure: 8-10 week old wildtype female C57BL/6 mice were obtained from Charles River Laboratories. Mrap1 KO mice were obtained from Queen Mary University of London, UK. SSR125543A, a small molecule CRHR1 antagonist, was obtained from Axon Medchem (Cat #Axon 1799). Mouse Corticosterone (55-Corms-E01) and adrenocorticotropic hormone (ACTH) ELISA kits (21-ACTHU-E01) were obtained from ALPCO, USA. All procedures were carried out in accordance with the Guide for the Care and Use of Laboratory Animals of the National Institutes of Health. Protocols were approved by Charles River Laboratories Institutional Animal Care and Use Committee (IACUC).
To generate Mrap1 KO mice, Mrap1−/− male mice were bred with Mrap1+/− female mice. Corticosterone hormone replacement was performed by administering 50 μg/ml in drinking water to breeder cages when female mice were pregnant and their pregnancies palpable (approximately embryonic day 10). Drinking water was changed weekly, and treatment was stopped at weaning. Mice were uniquely identified with ear tags at the time of tail clipping to match future genotype with each mouse. DNA was extracted from tail tissue and used to genotype mice.
[…] On day 2 or 3, 14 and 28, 200 μl of blood was collected in EDTA tubes from the submandibular vein of each mouse. […]

B1: PR302334-24: humanized variant of Series 9 mAb PR302334; VH SEQ ID NO: 275, VL SEQ ID NO: 328 (antibody, V domains shown)
VH: EVQLVESGGGLVKPGGSLRLSCAASGFTFSTYAMSWVRQAPGKGLEWVASIRSGGTTYYPDSVKGRFTISRDNAKNSLYLQMNSLRAEDTAVYYCTRGIDWGQGTTVTVSS
VL: DIVMTQSPDSLAVSLGERATINCKASQSVNNDVAWYQQKPGQPPRLLIYYASNRYTGVPDRFSGSGSGTDFTLTISSLQAEDLAVYFCQQDYSSWTFGGGTKVEIK
modifications: PR302334-16 VH, PR302334-24 VH, PR302334-25 VH; PR302334-10 VL, PR302334-24 VL, PR302334-26 VL, PR302334-4 VL
duration of the effects: at least 14 days
